{
  "source": "patent US12036190B2",
  "about": "“Methods and compositions for the treatment of cytoplasmic glycogen storage disorders” (Duke University, priority 2015, dated 2024)",
  "key": {"[1]": {"tested_on": "G6pc−/− knockout mice", "assay": "Bezafibrate treatment of G6pc−/− mice", "format": "in vivo"}, "[2]": {"tested_on": "carnitine palmitoyl transferase (CPT)", "details": "bezafibrate 400 μM; cited from earlier work"}, "[3]": {"tested_on": "autophagy", "details": "Table 4; drugs known to enhance autophagy; cited from earlier work"}, "[4]": {"tested_on": "cultured rat hepatocytes", "details": "bezafibrate 200 μM; cited from earlier work"}, "[5]": {"tested_on": "NAFLD in mice", "details": "cited from earlier work"}, "[6]": {"tested_on": "G6pc knockdown AML-12 cells", "assay": "LC3 Western blot of drug-treated G6pc knockdown AML-12 cells", "format": "cell-based, mouse", "details": "24 hours; conditions with optimal effects in the Oil Red O screen", "procedure": "FIG. 27 illustrates LC3 Western blot of drug-treated G6pc knockdown AML-12 cells. Western blotting was performed on AML-12 cells incubated for 24 hours with the described drug conditions. LC3 was quantified and normalized against each condition's β-actin protein quantification.\nIn addition to Oil Red O staining, cells were analyzed via Western blots for restored LC3 expression for each drug, under the conditions that had optimal effects in the Oil Red O screen (FIG. 27). Since the Western antibody previously used successfully for rapamycin treatment LC3 blots had been discontinued by the manufacturer, we tested two alternative antibodies and chose the one from Cell Signaling Technologies because it gave the strongest signal-to-noise ratio under our experimental conditions.\nWestern blotting was performed on AML-12 cells incubated for 24 hours with the described drug conditions. LC3 was quantified and normalized against each condition's β-actin protein quantification."}, "[7]": {"tested_on": "G6pc knockdown AML-12 cells", "assay": "Rapamycin on G6pc siRNA knockdown AML-12 cells (Western blotting, Oil Red O)", "format": "cell-based, mouse"}, "[8]": {"tested_on": "GSD Ia canines", "assay": "Rapamycin treatment of GSD Ia canines", "format": "in vivo, canine", "details": "for liver length (hepatomegaly): dogs treated with AAV-G6Pase, oral rapamycin 1 mg/kg/day for 1 week; for serum GGT: oral rapamycin 1 mg/kg/day, absolute values or fold reduction"}, "[9]": {"tested_on": "G6pc siRNA knockdown AML-12 cells", "details": "Oil Red O, duplicate; for Lipid Reduction Scoring, High dose: high concentration of Table 6; for Lipid Reduction Scoring, Medium dose: medium concentration of Table 6", "text": "In brief, a wide array of drugs was selected, including those that modulate autophagy via the […] pathway, those that do so through AMPK modulation to act through mTORC1, and those using yet-undetermined pathways. Analysis of additional literature led to the selection of three concentrations of each compound to be tested in cell culture using the G6pc siRNA knockdown AML-12 mouse hepatocyte cell line model of GSD Ia as an initial screen for the drugs.\nDrug concentrations were chosen based on similarity to published concentrations in either cell culture models resulting in target effects or autophagy, or in vivo extracellular fluid concentrations following animal treatments. The latter case is noted with the fluid type. Concentrations used in our in vitro AML-12 cell culture treatments are listed as the low, medium, and high concentrations that were screened.\nThe first test using AML-12 cells was the Oil Red 0 stain to examine the presence of lipid vacuoles in cells given the treatments.\nG6pc siRNA knockdown AML-12 cells were given three different doses of each drug treatment. After 72 hours of growth, the media was changed to ketogenic media and appropriate quantities of each drug were added. This was performed in duplicate. Oil Red 0 staining was then performed and bright field images acquired at 10× magnification.\nDrug treatments at three doses each were performed on G6pc siRNA knockdown AML-12 cells. Following oil red 0 staining the whole plates were evaluated visually for reductions in lipid accumulation. Treatments were performed in duplicate. —/0/+/++/+++ indicates the degree of improvement, or lipid reduction, caused by the treatment, with + indicating positive benefits."}, "[10]": {"tested_on": "G6pc−/− mice", "assay": "Rapamycin treatment of GSD Ia (G6pc−/−) mice", "format": "in vivo, mouse", "details": "for LC3-II in liver (LC3-II/actin, Western blotting): 5 mg/kg rapamycin IP daily for 7 days, 5 mg/kg", "procedure": "Candidate drugs for restoring autophagy in the GSD Ia liver were evaluated. Rapamycin is known to both have potent effects on activating autophagy as an mTORC1 inhibitor, and to regulate lipid metabolism due to its effect upon mTORC1. GSD Ia mice were treated with rapamycin daily for 7 days prior to evaluating effects upon autophagy and lipid accumulation in the liver.\nG6pc−/− mice were given intraperitoneal injections of 5 mg/kg rapamycin suspended in 10% DMSO/90% PBS daily for 7 days starting on day 5 of life.\nTreatment was sufficient to normalize G6pc−/− mice to the naturally low WT triglyceride levels.\nHepatic glycogen content was further analyzed using PAS staining to stain for polysaccharides, including glycogen, in liver sections. […] This confirms our hypothesis that manipulating autophagy can reduce glycogen accumulation by breaking it down through alternate routes from the traditional one relying on G6Pase, bypassing the need for G6Pase in GSD Ia hepatocytes."}, "[11]": {"details": "5 day old mice, quantified 3 days later"}, "[12]": {"details": "1 mg/kg rapamycin orally daily for 10 days"}},
  "note": "Entries after “also recorded” stand apart in the source; their conditions may differ. For at least one compound, name, drawing or mass did not settle the structure.",
  "data": [
    {"smiles": "CC(C)(Oc1ccc(CCNC(=O)c2ccc(Cl)cc2)cc1)C(=O)O", "note": "[Bezafibrate, bezafibrate]", "values": [
      {"measurement": "liver triglycerides", "setting": "[1]; [11]", "result": "reduced"},
      {"measurement": "plasma triglycerides", "setting": "[1]; [11]", "result": "decreased plasma triglycerides; also recorded: reduces plasma triglycerides"},
      {"measurement": "blood glucose, change with treatment", "setting": "[1]; bezafibrate 25 mg/kg/day IP for 3 days, at tissue collection", "result": "no increase"},
      {"measurement": "liver glycogen content", "setting": "[1]; single dose, data not shown", "result": "did not reduce liver glycogen content"},
      {"measurement": "fatty acid β-oxidation (FAO), carnitine palmitoyl transferase (CPT) activity", "setting": "[2]", "result": "increased"},
      {"measurement": "Effect", "setting": "[3]", "result": "Reduced steatosis, increased FAO"},
      {"measurement": "autophagosomes", "setting": "[4]", "result": "increased autophagosomes"},
      {"measurement": "effects of NAFLD", "setting": "[5]", "result": "reversed the effects of NAFLD"},
      {"measurement": "LC3 normalized against β-actin (Western blot)", "setting": "[6]", "result": "increase in LC3 autophagic marker"}
    ]},
    {"smiles": "Cn1c(=O)c2c(ncn2C)n(C)c1=O", "note": "[Caffeine, caffeine (trimethylxanthine)]", "values": [
      {"measurement": "Effect", "setting": "[3]", "result": "Increased autophagy, reduced steatosis"}
    ]},
    {"smiles": "CO[C@H]1C[C@@H]2CC[C@@H](C)[C@@](O)(O2)C(=O)C(=O)N2CCCC[C@H]2C(=O)O[C@H]([C@H](C)C[C@@H]2CC[C@@H](O)[C@H](OC)C2)CC(=O)[C@H](C)/C=C(\\C)[C@@H](O)[C@@H](OC)C(=O)[C@H](C)C[C@H](C)/C=C/C=C/C=C/1C", "note": "[Rapamycin, rapamycin]", "values": [
      {"measurement": "LC3-II / autophagy markers (Western blotting)", "setting": "[7]; G6pc knockdown AML-12 cells", "result": "increase in LC3-II; also recorded: restores autophagy"},
      {"measurement": "lipid accumulation (Oil Red O staining)", "setting": "[7]; G6pc knockdown AML-12 cells", "result": "reduced lipid accumulation; also recorded: restored to low levels"},
      {"measurement": "amount of p70s6k that is phosphorylated (p-p70s6k)", "setting": "[7]; siG6P-treated AML-12 cells", "result": "reduces"},
      {"measurement": "dorsal liver length", "setting": "[8]; [12]", "result": "no significant dorsal liver length change"},
      {"measurement": "ventral liver length", "setting": "[8]; [12]", "result": "reduced"},
      {"measurement": "liver length (hepatomegaly)", "setting": "[8]", "result": "reduced"},
      {"measurement": "liver length (hepatomegaly)", "setting": "[8]; listed as rapamycin", "result": "significantly reduced"},
      {"measurement": "serum GGT", "setting": "[8]", "result": "reduced"},
      {"measurement": "serum GGT", "setting": "[8]; listed as rapamycin", "result": "significantly decreased; also recorded: went down significantly; also recorded: reduced"},
      {"measurement": "serum ALT", "setting": "[8]; oral rapamycin 10 days, fold reduction from starting values", "result": "went down with significance; also recorded: reduced"},
      {"measurement": "Lipid Reduction Scoring, High dose", "setting": "[9]", "result": "− − −"},
      {"measurement": "Lipid Reduction Scoring, Low dose", "setting": "[9]; low concentration of Table 6", "result": "− −"},
      {"measurement": "Lipid Reduction Scoring, Medium dose", "setting": "[9]", "result": "− −"},
      {"measurement": "LC3-II / autophagosome content in the kidney", "setting": "[10]; G6Pase-KO mice, rapamycin for 1 week, listed as rapamycin", "result": "increased autophagosome content"},
      {"measurement": "LC3-II in liver (LC3-II/actin, Western blotting)", "setting": "[10]; G6pc−/− mice", "result": "increased"},
      {"measurement": "LC3-II in liver (LC3-II/actin, Western blotting)", "setting": "[10]; G6pc−/− mice, listed as rapamycin", "result": "increase in LC3-II; also recorded: increases autophagosome number"},
      {"measurement": "hepatic triglycerides of treated group compared to vehicle-injected WT mice", "setting": "[10]; G6pc−/− mice, rapamycin", "result": "no significant difference"},
      {"measurement": "liver triglyceride content", "setting": "[10]; G6pc−/− mice, rapamycin daily for 7 days", "result": "reduced triglycerides; also recorded: reduced by half"},
      {"measurement": "hepatic autophagic vesicles (electron microscopy)", "setting": "[10]; GSD Ia mice, rapamycin", "result": "increase in this indication of autophagy"},
      {"measurement": "hepatic glycogen content (glycogen assay)", "setting": "[10]; GSD Ia mice, rapamycin", "result": "reduced glycogen content; also recorded: substantial reduction; also recorded: reduction in glycogen"},
      {"measurement": "hepatic glycogen accumulation (PAS staining)", "setting": "[10]; GSD Ia mouse liver sections, rapamycin", "result": "visibly reduced glycogen-laden vacuoles; also recorded: reduced hepatic glycogen accumulation"},
      {"measurement": "phosphorylation of the mTOR substrate p70s6k", "setting": "[10]; GSD Ia mouse liver, rapamycin daily for 7 days", "result": "decreased"},
      {"measurement": "lipid vacuoles in hepatocytes (electron microscopy)", "setting": "[10]; GSD Ia mouse livers, rapamycin", "result": "visible reduction in lipid vacuole size and number; also recorded: fewer lipid vacuoles"},
      {"measurement": "Effect", "setting": "[10]; Table 4, GSDIa liver", "result": "Increased autophagy in GSDIa liver"}
    ]},
    {"smiles": "O=C(O)CCCCC1CCSS1", "note": "(stereo not drawn) [α-Lipoic acid, α-lipoic acid]", "values": [
      {"measurement": "Lipid Reduction Scoring, Medium dose", "setting": "[9]", "result": "−"}
    ]},
    {"smiles": "Cc1c(C)c2c(c(C)c1O)CC[C@@](C)(CCC[C@H](C)CCC[C@H](C)CCCC(C)C)O2", "note": "[α-Tocopherol]", "values": [
      {"measurement": "Lipid Reduction Scoring, High dose", "setting": "[9]", "result": "−"}
    ]}
  ]
}
